Data on three molecules can be found in publication PMC11832932.

Sequences of proteins named here, by UniProt entry; tags and fusion partners are left off.
UniProt P11142: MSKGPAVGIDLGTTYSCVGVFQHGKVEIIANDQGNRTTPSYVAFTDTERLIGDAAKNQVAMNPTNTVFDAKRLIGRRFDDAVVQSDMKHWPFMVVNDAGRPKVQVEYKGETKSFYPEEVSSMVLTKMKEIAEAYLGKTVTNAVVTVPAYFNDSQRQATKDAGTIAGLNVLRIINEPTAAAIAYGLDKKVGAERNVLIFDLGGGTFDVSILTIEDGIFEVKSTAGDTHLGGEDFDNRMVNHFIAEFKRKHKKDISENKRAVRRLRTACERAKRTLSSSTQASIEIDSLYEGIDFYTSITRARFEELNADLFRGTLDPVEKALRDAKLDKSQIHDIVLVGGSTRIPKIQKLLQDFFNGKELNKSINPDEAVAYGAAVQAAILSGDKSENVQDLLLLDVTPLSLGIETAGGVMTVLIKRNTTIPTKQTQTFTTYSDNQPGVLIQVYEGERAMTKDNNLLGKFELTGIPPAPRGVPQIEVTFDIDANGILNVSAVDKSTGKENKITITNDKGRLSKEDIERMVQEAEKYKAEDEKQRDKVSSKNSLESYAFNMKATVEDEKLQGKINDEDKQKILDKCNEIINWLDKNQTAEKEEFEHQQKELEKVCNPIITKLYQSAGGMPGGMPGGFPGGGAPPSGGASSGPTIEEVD

Substitutions are numbered along the chain they refer to. These are yes or no findings as the source states them, for the method shown. Binding seen in cells or lysates may run through a third protein. Some binding calls cover weakened binding; strength is not graded here. Sequences can lack the tags named with a protein.

Test [1] has as its target T1, Flag-PHGDH WT (human phosphoglycerate dehydrogenase) (human) (UniProt O43175).
T1 sequence: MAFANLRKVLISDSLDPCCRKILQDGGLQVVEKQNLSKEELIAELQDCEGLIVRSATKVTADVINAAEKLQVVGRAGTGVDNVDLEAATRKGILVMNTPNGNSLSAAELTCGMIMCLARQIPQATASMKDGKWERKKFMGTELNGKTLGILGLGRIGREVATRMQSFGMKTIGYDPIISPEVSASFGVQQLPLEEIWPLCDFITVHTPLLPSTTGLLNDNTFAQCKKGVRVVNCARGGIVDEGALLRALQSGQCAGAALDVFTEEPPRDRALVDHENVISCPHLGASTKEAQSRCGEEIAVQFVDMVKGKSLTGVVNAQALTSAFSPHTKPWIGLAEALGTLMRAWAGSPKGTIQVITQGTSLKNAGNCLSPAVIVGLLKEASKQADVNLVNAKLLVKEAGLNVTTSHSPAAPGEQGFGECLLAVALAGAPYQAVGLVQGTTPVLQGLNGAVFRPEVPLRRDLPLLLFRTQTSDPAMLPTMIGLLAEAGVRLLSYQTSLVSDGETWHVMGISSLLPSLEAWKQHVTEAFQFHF
The experiment in a line: co-IP; Flag-PHGDH WT or S371A immunoprecipitated from SK-Hep1 cells co-transfected with HA-HSC70; cells treated with 20 μM CQ and with or without 0.5 mM H2O2 for 12 h; LAMP2A and HA-HSC70 detected by immunoblotting. (A western blot detects proteins with antibodies after separation by electrophoresis.)

For test [2], the target named is T2, Flag-PHGDH S371A (phospho-deficient mutant) (human) (UniProt O43175).
T2 sequence: T1 sequence with S371A
The test is described as above.

Test [3] has as its target T3, Flag-PHGDH S371D (phospho-mimic mutant) (human) (UniProt O43175).
T3 sequence: T1 sequence with S371D
The experiment in a line: co-IP; Flag-PHGDH WT or S371D immunoprecipitated from transiently transfected SK-Hep1 cells 36 h after transfection; endogenous LAMP2A and HSC70 detected by immunoblotting.

For test [4], the target named is T1, Flag-PHGDH WT (human phosphoglycerate dehydrogenase) (human). The test is described as follows: co-IP; Flag-PHGDH immunoprecipitated from SK-Hep1 cells co-transfected with EV or Flag-PHGDH and HA-MAPK13.

As for “HA-HSC70 (human heat shock cognate 71 kDa protein) (from UniProt P11142 1-646)”, the binding entry in test [1] is “binds”; in test [2] it was “no binding”.

As to “heat shock cognate 71 kDa protein (HSC70), endogenous (from UniProt P11142 1-646)”, the binding entry in test [3] is on record as “binds”.

B1: HA-MAPK13 (human mitogen-activated protein kinase 13) (enzyme, UniProt O15264 1-365)
chain: MSLIRKKGFYKQDVNKTAWELPKTYVSPTHVGSGAYGSVCSAIDKRSGEKVAIKKLSRPFQSEIFAKRAYRELLLLKHMQHENVIGLLDVFTPASSLRNFYDFYLVMPFMQTDLQKIMGMEFSEEKIQYLVYQMLKGLKYIHSAGVVHRDLKPGNLAVNEDCELKILDFGLARHADAEMTGYVVTRWYRAPEVILSWMHYNQTVDIWSVGCIMAEMLTGKTLFKGKDYLDQLTQILKVTGVPGTEFVQKLNDKAAKSYIQSLPQTPRKDFTQLFPRASPQAADLLEKMLELDVDKRLTAAQALTHPFFEPFRDPEEETEAQQPFDDSLEHEKLTVDEWKQHIYKEIVNFSPIARKDSRRRSGMKL
As for B1, in test [4], the binding entry is listed as “binds”.
